Results reported in patent publication US20230241159A1, “Peptide Having Mesenchymal Stem Cell Mobilizing Activity” (StemRIM Inc., priority 2020, published 2023).
Some entries share one result that the patent states for a list of compounds.

Test system: mesenchymal stem cells
Assay: Peripheral blood colony assay after peptide administration (mobilization of mesenchymal stem cells into peripheral blood)
Format: in vivo, C57BL/6J mice
Conditions: 4 mg/kg peptide into the tail vein; blood collected 16 hours after administration; per 800 μL peripheral blood; 10 days culture; assay performed 4 to 6 times; threshold 10 colonies (reached even once = active)

| Substance | number of colonies formed from peripheral blood (colonies containing 50 or more cells) |
| --- | --- |
| 1r10_C05: peptide consisting of the amino acid sequence from position 6 to position 30 of SEQ ID NO: 1; SEQ ID NO: 11 (QYFFQCHKCAVKKKTWKEKKDRRHP) [Peptide 1r10_C05] | ≥ 10 colonies |
| 1r10_C10: peptide consisting of the amino acid sequence from position 11 to position 30 of SEQ ID NO: 1; SEQ ID NO: 12 (CHKCAVKKKTWKEKKDRRHP) [Peptide 1r10_C10] | ≥ 10 colonies |
| 1r10_C11: peptide consisting of the amino acid sequence from position 12 to position 30 of SEQ ID NO: 1; SEQ ID NO: 13 (HKCAVKKKTWKEKKDRRHP) [Peptide 1r10_C11] | ≥ 10 colonies |
| 1r10_C12: peptide consisting of the amino acid sequence from position 13 to position 30 of SEQ ID NO: 1; SEQ ID NO: 14 (KCAVKKKTWKEKKDRRHP) [Peptide 1r10_C12] | ≥ 10 colonies |
| 1r10_C15: peptide consisting of the amino acid sequence from position 16 to position 30 of SEQ ID NO: 1; SEQ ID NO: 15 (VKKKTWKEKKDRRHP) [Peptide 1r10_C15] | ≥ 10 colonies |
| 1r10_C16: peptide consisting of the amino acid sequence from position 17 to position 30 of SEQ ID NO: 1; SEQ ID NO: 16 (KKKTWKEKKDRRHP) [Peptide 1r10_C16] | ≥ 10 colonies |
| 1r10_C17: peptide consisting of the amino acid sequence from position 18 to position 30 of SEQ ID NO: 1; SEQ ID NO: 17 (KKTWKEKKDRRHP) [Peptide 1r10_C17] | ≥ 10 colonies |
| 1r10_C18: 1r10 fragment peptide, region 19-30 of the amino acid sequence of 1r10; SEQ ID NO: 18 (KTWKEKKDRRHP) [Peptide 1r10_C18] | less than 10 colonies |
| 1r10_MF5: peptide consisting of the amino acid sequence from position 6 to position 16 of SEQ ID NO: 1; SEQ ID NO: 19 (QYFFQCHKCAV) [Peptide 1r10_MF5] | ≥ 10 colonies |
| 1r10_N11: peptide consisting of the amino acid sequence from position 1 to position 19 of SEQ ID NO: 1; SEQ ID NO: 7 (IMWLCQYFFQCHKCAVKKK) [Peptide 1r10_N11] | ≥ 10 colonies |
| 1r10_N12: peptide consisting of the amino acid sequence from position 1 to position 18 of SEQ ID NO: 1; SEQ ID NO: 8 (IMWLCQYFFQCHKCAVKK) [Peptide 1r10_N12] | ≥ 10 colonies |
| 1r10_N14: peptide consisting of the amino acid sequence from position 1 to position 16 of SEQ ID NO: 1; SEQ ID NO: 9 (IMWLCQYFFQCHKCAV) [Peptide 1r10_N14] | ≥ 10 colonies |
| 1r10_N15: 1r10 fragment peptide, region 1-15 of the amino acid sequence of 1r10; SEQ ID NO: 10 (IMWLCQYFFQCHKCA) [Peptide 1r10_N15] | less than 10 colonies |
